Test results taken from the supplement of paper PMC10849652.
Some of the results follow.

Sequences of proteins named here, by UniProt entry; tags and fusion partners are left off. A change or cut given only in a name is not applied to a line headed by its entry.
UniProt Q9UHA4, whole entry, looked up: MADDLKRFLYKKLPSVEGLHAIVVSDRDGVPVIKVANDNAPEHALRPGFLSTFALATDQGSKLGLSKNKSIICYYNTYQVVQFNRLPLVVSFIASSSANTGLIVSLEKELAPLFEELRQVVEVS
UniProt Q96AT1: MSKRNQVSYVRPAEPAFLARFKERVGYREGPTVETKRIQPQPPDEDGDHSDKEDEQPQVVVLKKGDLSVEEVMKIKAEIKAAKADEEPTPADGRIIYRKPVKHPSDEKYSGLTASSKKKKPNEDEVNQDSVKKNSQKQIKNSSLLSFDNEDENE
UniProt Q8NEZ4, whole entry, looked up: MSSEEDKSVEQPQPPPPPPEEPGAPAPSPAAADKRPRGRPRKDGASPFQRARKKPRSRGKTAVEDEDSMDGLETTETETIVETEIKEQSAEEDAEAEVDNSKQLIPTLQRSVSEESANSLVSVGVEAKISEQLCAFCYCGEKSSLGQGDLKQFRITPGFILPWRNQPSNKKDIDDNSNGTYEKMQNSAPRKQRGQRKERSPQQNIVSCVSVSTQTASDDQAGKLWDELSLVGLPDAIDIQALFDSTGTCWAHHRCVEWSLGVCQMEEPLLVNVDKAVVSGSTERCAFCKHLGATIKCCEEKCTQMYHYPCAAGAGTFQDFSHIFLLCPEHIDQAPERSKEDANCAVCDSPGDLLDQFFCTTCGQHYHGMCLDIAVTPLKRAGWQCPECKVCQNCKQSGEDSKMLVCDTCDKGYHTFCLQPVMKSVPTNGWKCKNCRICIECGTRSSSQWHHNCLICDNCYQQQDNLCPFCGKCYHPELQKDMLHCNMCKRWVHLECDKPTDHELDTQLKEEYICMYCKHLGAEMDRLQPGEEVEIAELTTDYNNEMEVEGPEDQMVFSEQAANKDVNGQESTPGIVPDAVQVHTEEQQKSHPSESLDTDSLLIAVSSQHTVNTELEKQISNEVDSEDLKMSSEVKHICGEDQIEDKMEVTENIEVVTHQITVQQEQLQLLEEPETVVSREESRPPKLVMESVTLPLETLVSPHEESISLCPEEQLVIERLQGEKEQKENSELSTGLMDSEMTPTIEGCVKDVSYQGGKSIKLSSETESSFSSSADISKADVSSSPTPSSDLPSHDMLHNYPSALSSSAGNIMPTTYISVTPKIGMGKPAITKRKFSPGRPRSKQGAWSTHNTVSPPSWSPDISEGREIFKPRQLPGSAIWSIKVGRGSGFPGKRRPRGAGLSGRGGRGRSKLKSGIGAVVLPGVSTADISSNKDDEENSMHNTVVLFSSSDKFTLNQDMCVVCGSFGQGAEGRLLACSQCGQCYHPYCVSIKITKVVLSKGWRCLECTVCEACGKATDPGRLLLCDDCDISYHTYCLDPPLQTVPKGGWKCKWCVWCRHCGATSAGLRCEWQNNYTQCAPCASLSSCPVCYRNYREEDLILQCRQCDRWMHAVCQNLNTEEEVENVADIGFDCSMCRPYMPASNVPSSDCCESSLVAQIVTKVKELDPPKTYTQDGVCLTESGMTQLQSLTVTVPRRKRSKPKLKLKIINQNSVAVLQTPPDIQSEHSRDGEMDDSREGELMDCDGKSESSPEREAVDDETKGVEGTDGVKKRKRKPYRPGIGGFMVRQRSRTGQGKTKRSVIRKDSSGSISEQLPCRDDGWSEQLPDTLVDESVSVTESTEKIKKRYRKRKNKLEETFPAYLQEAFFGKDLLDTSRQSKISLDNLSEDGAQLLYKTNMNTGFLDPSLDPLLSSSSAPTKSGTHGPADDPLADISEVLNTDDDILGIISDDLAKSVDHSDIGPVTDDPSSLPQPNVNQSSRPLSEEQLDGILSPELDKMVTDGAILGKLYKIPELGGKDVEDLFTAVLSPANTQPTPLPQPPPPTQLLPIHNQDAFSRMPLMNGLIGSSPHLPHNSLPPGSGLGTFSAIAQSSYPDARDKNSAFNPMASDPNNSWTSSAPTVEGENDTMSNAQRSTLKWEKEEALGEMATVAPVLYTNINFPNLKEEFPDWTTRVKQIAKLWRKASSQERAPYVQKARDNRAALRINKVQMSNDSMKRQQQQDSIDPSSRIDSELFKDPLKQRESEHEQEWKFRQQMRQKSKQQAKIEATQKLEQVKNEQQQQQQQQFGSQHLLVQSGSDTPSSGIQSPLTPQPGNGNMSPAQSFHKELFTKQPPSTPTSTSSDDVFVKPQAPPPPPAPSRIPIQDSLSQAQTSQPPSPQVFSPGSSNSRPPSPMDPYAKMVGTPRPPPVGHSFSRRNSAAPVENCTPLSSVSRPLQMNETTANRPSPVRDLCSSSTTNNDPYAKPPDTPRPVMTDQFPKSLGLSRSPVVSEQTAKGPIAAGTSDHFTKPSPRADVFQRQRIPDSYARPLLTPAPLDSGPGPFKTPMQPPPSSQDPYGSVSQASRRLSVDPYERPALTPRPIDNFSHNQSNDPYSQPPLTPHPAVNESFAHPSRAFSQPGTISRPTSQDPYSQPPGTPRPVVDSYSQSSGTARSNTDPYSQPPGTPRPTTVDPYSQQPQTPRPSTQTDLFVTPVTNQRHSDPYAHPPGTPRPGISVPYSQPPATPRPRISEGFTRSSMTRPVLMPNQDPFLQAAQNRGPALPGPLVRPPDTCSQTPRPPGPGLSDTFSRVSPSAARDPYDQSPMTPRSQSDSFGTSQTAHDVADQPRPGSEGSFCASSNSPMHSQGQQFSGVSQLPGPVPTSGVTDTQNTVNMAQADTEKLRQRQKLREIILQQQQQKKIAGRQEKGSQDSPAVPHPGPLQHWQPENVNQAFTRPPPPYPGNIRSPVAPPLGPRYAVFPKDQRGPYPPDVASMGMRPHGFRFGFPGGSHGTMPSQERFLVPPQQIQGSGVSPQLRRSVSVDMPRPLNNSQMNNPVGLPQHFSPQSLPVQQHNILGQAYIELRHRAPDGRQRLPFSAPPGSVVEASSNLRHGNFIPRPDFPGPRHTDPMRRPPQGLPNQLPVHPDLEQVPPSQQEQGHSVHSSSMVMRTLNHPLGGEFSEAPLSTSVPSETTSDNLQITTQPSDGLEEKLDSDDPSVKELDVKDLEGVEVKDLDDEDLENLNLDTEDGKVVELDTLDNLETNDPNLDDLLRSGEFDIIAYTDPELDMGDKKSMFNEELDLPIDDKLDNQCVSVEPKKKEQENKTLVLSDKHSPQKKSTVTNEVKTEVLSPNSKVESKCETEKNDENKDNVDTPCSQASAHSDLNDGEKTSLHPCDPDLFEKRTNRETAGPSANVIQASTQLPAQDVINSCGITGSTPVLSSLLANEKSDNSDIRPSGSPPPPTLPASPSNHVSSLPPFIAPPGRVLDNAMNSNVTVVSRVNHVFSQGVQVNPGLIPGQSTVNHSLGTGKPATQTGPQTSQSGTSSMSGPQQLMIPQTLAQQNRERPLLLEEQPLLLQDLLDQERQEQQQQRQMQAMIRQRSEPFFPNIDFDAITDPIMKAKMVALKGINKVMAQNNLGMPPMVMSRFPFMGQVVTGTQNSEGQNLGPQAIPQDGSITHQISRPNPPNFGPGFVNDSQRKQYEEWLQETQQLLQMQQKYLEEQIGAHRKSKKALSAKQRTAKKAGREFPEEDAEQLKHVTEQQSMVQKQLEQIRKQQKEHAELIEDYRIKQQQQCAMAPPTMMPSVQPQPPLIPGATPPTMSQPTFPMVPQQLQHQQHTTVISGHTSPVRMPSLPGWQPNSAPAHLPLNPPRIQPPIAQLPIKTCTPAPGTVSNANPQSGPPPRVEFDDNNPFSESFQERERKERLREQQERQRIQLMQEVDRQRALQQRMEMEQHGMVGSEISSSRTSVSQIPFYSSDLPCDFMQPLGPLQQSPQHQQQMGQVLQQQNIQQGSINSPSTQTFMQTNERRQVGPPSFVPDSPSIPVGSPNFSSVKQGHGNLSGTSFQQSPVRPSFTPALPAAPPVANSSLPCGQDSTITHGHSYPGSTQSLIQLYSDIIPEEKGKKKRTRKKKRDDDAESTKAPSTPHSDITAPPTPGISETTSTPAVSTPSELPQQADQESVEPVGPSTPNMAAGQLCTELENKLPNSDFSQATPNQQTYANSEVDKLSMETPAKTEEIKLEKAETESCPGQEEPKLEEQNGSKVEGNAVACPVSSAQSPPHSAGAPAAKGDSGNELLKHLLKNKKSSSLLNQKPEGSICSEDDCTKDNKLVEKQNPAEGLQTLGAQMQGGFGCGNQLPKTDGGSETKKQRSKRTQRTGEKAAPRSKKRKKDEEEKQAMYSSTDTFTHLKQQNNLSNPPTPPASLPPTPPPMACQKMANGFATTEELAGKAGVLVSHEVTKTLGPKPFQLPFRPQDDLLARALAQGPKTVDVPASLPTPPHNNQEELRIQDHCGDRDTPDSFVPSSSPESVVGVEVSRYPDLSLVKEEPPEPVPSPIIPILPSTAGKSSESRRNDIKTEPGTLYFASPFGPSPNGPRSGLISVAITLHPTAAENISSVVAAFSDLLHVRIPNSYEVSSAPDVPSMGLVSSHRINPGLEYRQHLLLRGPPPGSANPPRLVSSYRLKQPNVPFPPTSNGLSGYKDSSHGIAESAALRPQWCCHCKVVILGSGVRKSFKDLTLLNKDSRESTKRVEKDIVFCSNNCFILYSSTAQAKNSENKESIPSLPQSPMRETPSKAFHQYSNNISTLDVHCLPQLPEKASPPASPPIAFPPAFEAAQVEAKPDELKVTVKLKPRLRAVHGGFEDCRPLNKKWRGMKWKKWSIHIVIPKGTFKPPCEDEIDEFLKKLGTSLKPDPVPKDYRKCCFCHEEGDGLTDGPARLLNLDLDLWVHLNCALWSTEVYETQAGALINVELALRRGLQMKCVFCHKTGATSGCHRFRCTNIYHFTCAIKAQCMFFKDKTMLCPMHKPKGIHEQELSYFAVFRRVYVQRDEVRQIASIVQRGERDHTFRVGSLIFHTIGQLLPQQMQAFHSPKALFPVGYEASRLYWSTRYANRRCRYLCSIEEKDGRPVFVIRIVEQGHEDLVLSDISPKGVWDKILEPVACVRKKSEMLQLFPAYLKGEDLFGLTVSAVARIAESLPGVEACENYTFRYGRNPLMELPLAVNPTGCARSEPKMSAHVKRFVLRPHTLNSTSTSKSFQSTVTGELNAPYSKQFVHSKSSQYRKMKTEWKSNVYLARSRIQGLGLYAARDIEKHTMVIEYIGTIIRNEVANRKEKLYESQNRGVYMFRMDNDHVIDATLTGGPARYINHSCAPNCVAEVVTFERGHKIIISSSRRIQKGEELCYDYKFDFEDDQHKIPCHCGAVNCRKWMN
UniProt O15550, whole entry, looked up: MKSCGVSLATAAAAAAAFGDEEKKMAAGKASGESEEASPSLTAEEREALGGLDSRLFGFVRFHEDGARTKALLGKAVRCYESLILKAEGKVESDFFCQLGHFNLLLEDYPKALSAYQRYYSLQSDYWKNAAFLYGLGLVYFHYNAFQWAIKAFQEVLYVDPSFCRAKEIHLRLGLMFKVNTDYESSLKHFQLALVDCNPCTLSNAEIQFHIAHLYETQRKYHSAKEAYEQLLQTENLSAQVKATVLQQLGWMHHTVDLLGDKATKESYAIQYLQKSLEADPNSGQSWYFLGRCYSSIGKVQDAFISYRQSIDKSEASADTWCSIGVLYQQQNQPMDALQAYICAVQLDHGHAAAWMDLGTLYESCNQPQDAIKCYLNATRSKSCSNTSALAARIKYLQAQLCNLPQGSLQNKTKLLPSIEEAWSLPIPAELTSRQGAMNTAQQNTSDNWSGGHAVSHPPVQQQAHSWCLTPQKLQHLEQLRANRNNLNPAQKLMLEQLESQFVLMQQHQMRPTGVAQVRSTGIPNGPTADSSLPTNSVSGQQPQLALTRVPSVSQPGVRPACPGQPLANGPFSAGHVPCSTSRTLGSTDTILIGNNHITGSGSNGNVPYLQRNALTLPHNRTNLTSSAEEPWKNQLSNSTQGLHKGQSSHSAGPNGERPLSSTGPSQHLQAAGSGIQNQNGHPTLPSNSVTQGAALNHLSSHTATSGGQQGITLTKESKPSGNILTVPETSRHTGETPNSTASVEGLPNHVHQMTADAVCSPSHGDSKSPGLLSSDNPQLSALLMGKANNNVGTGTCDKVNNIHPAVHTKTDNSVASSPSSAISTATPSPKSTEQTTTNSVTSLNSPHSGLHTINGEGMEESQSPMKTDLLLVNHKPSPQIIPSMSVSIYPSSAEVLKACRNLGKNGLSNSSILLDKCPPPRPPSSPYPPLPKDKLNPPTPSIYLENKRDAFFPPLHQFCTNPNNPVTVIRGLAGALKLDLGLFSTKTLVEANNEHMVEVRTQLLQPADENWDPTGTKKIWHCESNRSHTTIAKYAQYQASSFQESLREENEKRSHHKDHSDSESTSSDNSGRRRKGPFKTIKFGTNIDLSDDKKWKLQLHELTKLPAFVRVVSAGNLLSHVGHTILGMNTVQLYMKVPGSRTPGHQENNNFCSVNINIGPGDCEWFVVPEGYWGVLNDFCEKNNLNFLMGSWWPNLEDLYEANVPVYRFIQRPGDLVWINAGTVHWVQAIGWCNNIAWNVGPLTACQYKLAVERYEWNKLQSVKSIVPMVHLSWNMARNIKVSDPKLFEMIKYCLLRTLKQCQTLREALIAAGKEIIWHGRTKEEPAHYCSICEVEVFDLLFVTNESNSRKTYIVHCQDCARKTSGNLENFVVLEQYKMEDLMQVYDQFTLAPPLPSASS

Experiments:
Test in all cases: log2 fold change, soluble protein after heating vs DMSO (PISA); higher = thermal stabilisation; K562 lysate, 10 uM; active = over 0.2 and 3.5 SD of the protein, either way, in both replicates (recomputed)
[1] = compound: CS(=O)(=O)CCNCc1ccc(-c2ccc3ncnc(Nc4ccc(OCc5cccc(F)c5)c(Cl)c4)c3c2)o1 [lapatinib]
Method in brief: (§1)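 To prepare the extract, K562 pellets were dounce-homogenised in PBS pH 7.4 with 1 mM MgCl2, giving crude material at 1 mg/mL protein. This was treated with 10 μM compound for 30 min, then heated in aliquots for 3 min over 48°C-58°C before pooling and addition of NP-40 to 0.5% at 4°C. Centrifugation at 21,000xg for 90 min left soluble protein in the supernatant, which TMTpro 16plex LC-MS/MS quantified with equalised channel sums. Results are log-two fold changes in thermal stability compared with solvent controls, from duplicates.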

[2] = compound: CS(=O)(=O)N1CCN(Cc2cc3nc(-c4cccc5[nH]ncc45)nc(N4CCOCC4)c3s2)CC1 [pictilisib]
Method in brief: as §1

[3] = compound: C[C@@H](Oc1cc(-c2cnn(C3CCNCC3)c2)cnc1N)c1c(Cl)ccc(F)c1Cl [crizotinib]
Method in brief: as §1

[4] = compound: C[C@H](C1=CC=C(C=C1)C(=O)NC2=C3C=CNC3=NC=C2)N
Method in brief: as §1

[5] = compound: C[C@H](Nc1ncnc2nc[nH]c12)c1cc2cccc(Cl)c2c(=O)n1-c1ccccc1 [duvelisib]
Method in brief: as §1

[6] = compound: Cc1cc(Nc2cc(CN3CCOCC3)c3nc(C)c(Cc4ccc(Cl)cc4F)n3n2)n[nH]1 [gandotinib]
Method in brief: as §1

[7] = compound: Cc1cc(Nc2cc(N3CCN(C)CC3)nc(Sc3ccc(NC(=O)C4CC4)cc3)n2)n[nH]1 [tozasertib]
Method in brief: as §1

[8] = compound: Cc1ccc(-n2nc(C(C)(C)C)cc2NC(=O)Nc2ccc(OCCN3CCOCC3)c3ccccc23)cc1 [doramapimod]
Method in brief: as §1

[9] = compound: Cc1ccc(NC(=O)c2ccc(CN3CC[C@H](N(C)C)C3)c(C(F)(F)F)c2)cc1Nc1nccc(-c2cncnc2)n1 [bafetinib]
Method in brief: as §1

[10] = compound: Cc1cccc(CC(=O)N2CCc3c2ccc(-c2cn(C)c4ncnc(N)c24)c3F)n1
Method in brief: as §1

Row | Target | log2 fold change [1] | log2 fold change [2] | log2 fold change [3] | log2 fold change [4] | log2 fold change [5] | log2 fold change [6] | log2 fold change [7] | log2 fold change [8] | log2 fold change [9] | log2 fold change [10]
1 | KLHL41 (UniProt O60662) | inactive: -0.039 | inactive: 0.014 | inactive: -0.306 | inactive: -0.355 | inactive: -0.015 | inactive: 0.449 | inactive: 0.096 | inactive: 0.053 | inactive: -0.223 | inactive: 0.375
2 | LARP1B, A0A3B3ISF0 | inactive: 0.04 | inactive: 0.098 | inactive: -0.082 | inactive: 0.03 | inactive: -0.017 | inactive: 0 | inactive: -0.023 | inactive: 0.084 | inactive: 0.019 | inactive: -0.008
3 | LANCL2 (UniProt Q9NS86) | inactive: -0.002 | inactive: 0.004 | inactive: -0.01 | inactive: 0.057 | inactive: -0.007 | inactive: -0.027 | inactive: -0.008 | inactive: 0.003 | inactive: 0.017 | inactive: -0.028
4 | KIF22 (UniProt Q14807) | inactive: -0.149 | inactive: -0.07 | inactive: -0.29 | inactive: -0.201 | inactive: -0.02 | inactive: 0.238 | inactive: -0.043 | inactive: -0.009 | inactive: -0.068 | inactive: 0.33
5 | KIFC1 (UniProt Q9BW19) | inactive: -0.021 | inactive: -0.013 | inactive: -0.019 | inactive: -0.016 | inactive: -0.003 | inactive: -0.05 | inactive: 0.047 | inactive: 0.021 | inactive: -0.027 | inactive: 0.031
6 | LARS (UniProt Q9P2J5) | inactive: -0.004 | inactive: -0.015 | inactive: -0.043 | inactive: 0.047 | inactive: -0.013 | inactive: -0.081 | inactive: 0.012 | inactive: -0.009 | inactive: -0.048 | inactive: -0.005
7 | LAP3 (UniProt P28838) | inactive: -0.021 | inactive: 0.003 | inactive: -0.102 | active: -0.531 | inactive: 0.034 | active: 0.385 | inactive: -0.126 | inactive: 0.02 | inactive: 0.014 | active: 0.331
8 | KLHDC3 (UniProt Q9BQ90) | inactive: 0.005 | inactive: -0.003 | inactive: -0.066 | inactive: 0.128 | inactive: -0.056 | inactive: -0.043 | inactive: 0.013 | inactive: 0.001 | inactive: -0.059 | inactive: 0.045
9 | KLHL36 (UniProt Q8N4N3) | inactive: -0.045 | inactive: -0.006 | inactive: 0.021 | inactive: -0.075 | inactive: -0.02 | inactive: -0.013 | inactive: 0.014 | inactive: -0.129 | inactive: 0.022 | inactive: -0.052
10 | KIAA1324L (UniProt A8MWY0) | inactive: 0.001 | inactive: -0.039 | inactive: -0.015 | inactive: -0.115 | inactive: -0.008 | inactive: -0.005 | inactive: 0.002 | inactive: 0.008 | inactive: -0.082 | inactive: 0.057
11 | KIF2C (UniProt Q99661) | inactive: 0.002 | inactive: -0.003 | inactive: -0.007 | inactive: 0.004 | inactive: 0.011 | inactive: -0.051 | inactive: -0.008 | inactive: 0.022 | inactive: 0.004 | inactive: -0.002
12 | KIF1B isoform 2 (UniProt O60333) | inactive: 0.013 | inactive: -0.009 | inactive: -0.021 | inactive: -0.015 | inactive: 0.007 | inactive: -0.025 | inactive: -0.021 | inactive: 0.051 | inactive: -0.025 | inactive: 0.046
13 | KNTC1 (UniProt P50748) | inactive: -0.039 | inactive: -0.029 | inactive: -0.098 | inactive: -0.034 | inactive: 0.002 | inactive: -0.048 | inactive: 0.033 | inactive: 0.028 | inactive: -0.076 | inactive: 0.075
14 | KIAA1522 isoform 2 (UniProt Q9P206) | inactive: 0.008 | inactive: -0.056 | inactive: -0.01 | inactive: -0.011 | inactive: -0.016 | inactive: -0.02 | inactive: 0.052 | inactive: 0.018 | inactive: 0.026 | inactive: 0.019
15 | KMT2A isoform 3 (UniProt Q03164) | inactive: -0.07 | inactive: -0.102 | inactive: -0.033 | inactive: 0.091 | inactive: 0.013 | inactive: 0.013 | inactive: 0.148 | inactive: 0.026 | inactive: -0.41 | inactive: 0.069
16 | KPNA6 (UniProt O60684) | inactive: 0.01 | inactive: -0.006 | inactive: -0.074 | inactive: 0.027 | inactive: 0.015 | inactive: -0.092 | inactive: 0.005 | inactive: 0.056 | inactive: -0.013 | inactive: 0.017
17 | KIF11 (UniProt P52732) | inactive: 0 | inactive: 0.021 | inactive: 0.001 | inactive: -0.03 | inactive: 0.017 | inactive: -0.042 | inactive: 0.006 | inactive: 0.014 | inactive: -0.014 | inactive: 0.063
18 | KYNU (UniProt Q16719) | inactive: -0.014 | inactive: 0.039 | inactive: 0.013 | inactive: -0.024 | inactive: -0.057 | inactive: 0.048 | inactive: 0.02 | inactive: 0.009 | inactive: -0.012 | inactive: 0.009
19 | KIAA0319L (UniProt Q8IZA0) | inactive: 0.002 | inactive: -0.016 | inactive: 0.077 | inactive: -0.009 | inactive: 0 | inactive: -0.001 | inactive: 0.026 | inactive: -0.043 | inactive: -0.002 | inactive: -0.012
20 | LAMTOR3 (UniProt Q9UHA4) | inactive: -0.017 | inactive: 0.061 | inactive: -0.033 | inactive: -0.126 | inactive: 0.023 | inactive: 0.066 | inactive: -0.03 | inactive: 0.018 | inactive: -0.093 | inactive: 0.062
21 | KLHDC4 (UniProt Q8TBB5) | inactive: -0.063 | inactive: -0.03 | inactive: -0.013 | inactive: 0.099 | inactive: 0.049 | inactive: -0.082 | inactive: 0.056 | inactive: 0.024 | inactive: 0.034 | inactive: 0
22 | KLHL20 (UniProt Q9Y2M5) | inactive: 0.005 | inactive: -0.009 | inactive: -0.029 | inactive: -0.039 | inactive: -0.001 | inactive: 0.055 | inactive: -0.025 | inactive: -0.023 | inactive: -0.049 | inactive: 0.129
23 | LARP1 (UniProt Q6PKG0) | inactive: -0.001 | inactive: -0.005 | inactive: 0.013 | inactive: 0.034 | inactive: 0 | inactive: -0.05 | inactive: 0.007 | inactive: -0.021 | inactive: 0.005 | inactive: -0.024
24 | KIAA1143 (UniProt Q96AT1) | inactive: 0.005 | inactive: 0.024 | inactive: -0.059 | inactive: -0.01 | inactive: 0.028 | inactive: 0.083 | inactive: -0.044 | inactive: 0.044 | inactive: -0.025 | inactive: 0.008
25 | KMT2C isoform 3 (UniProt Q8NEZ4) | inactive: -0.055 | inactive: -0.084 | inactive: 0.029 | inactive: -0.058 | inactive: -0.022 | inactive: -0.112 | inactive: 0.048 | inactive: -0.117 | inactive: -0.203 | inactive: 0.042
26 | LACTB (UniProt P83111) | inactive: 0.015 | inactive: -0.014 | inactive: 0.023 | inactive: 0.111 | inactive: 0.012 | inactive: -0.11 | inactive: -0.018 | inactive: 0.023 | inactive: -0.032 | inactive: -0.027
27 | KDSR (UniProt Q06136) | inactive: -0.015 | inactive: -0.076 | inactive: -0.022 | inactive: -0.074 | inactive: 0.028 | inactive: 0.118 | inactive: -0.017 | inactive: 0.011 | inactive: -0.082 | inactive: 0.073
28 | KIAA2013 (UniProt Q8IYS2) | inactive: -0.033 | inactive: -0.052 | inactive: 0.074 | inactive: 0.053 | inactive: -0.042 | inactive: -0.012 | inactive: -0.034 | inactive: -0.031 | inactive: -0.019 | inactive: -0.005
29 | KDM6A (UniProt O15550) | inactive: 0.033 | inactive: 0.046 | inactive: 0.003 | inactive: -0.028 | inactive: 0.032 | inactive: 0.009 | inactive: 0.01 | inactive: 0.022 | inactive: 0.002 | inactive: 0.013

Part of the list above, as tab-separated lines.
Row	Target	log2 fold change [1]	log2 fold change [2]	log2 fold change [3]	log2 fold change [4]	log2 fold change [5]	log2 fold change [6]	log2 fold change [7]	log2 fold change [8]	log2 fold change [9]	log2 fold change [10]
12	KIF1B isoform 2 (UniProt O60333)	inactive: 0.013	inactive: -0.009	inactive: -0.021	inactive: -0.015	inactive: 0.007	inactive: -0.025	inactive: -0.021	inactive: 0.051	inactive: -0.025	inactive: 0.046
13	KNTC1 (UniProt P50748)	inactive: -0.039	inactive: -0.029	inactive: -0.098	inactive: -0.034	inactive: 0.002	inactive: -0.048	inactive: 0.033	inactive: 0.028	inactive: -0.076	inactive: 0.075
